# Laboratory results reported in publication PMC7372886.
# Chains of the proteins cited; added tags and fusions are not shown.
# UniProt P49327: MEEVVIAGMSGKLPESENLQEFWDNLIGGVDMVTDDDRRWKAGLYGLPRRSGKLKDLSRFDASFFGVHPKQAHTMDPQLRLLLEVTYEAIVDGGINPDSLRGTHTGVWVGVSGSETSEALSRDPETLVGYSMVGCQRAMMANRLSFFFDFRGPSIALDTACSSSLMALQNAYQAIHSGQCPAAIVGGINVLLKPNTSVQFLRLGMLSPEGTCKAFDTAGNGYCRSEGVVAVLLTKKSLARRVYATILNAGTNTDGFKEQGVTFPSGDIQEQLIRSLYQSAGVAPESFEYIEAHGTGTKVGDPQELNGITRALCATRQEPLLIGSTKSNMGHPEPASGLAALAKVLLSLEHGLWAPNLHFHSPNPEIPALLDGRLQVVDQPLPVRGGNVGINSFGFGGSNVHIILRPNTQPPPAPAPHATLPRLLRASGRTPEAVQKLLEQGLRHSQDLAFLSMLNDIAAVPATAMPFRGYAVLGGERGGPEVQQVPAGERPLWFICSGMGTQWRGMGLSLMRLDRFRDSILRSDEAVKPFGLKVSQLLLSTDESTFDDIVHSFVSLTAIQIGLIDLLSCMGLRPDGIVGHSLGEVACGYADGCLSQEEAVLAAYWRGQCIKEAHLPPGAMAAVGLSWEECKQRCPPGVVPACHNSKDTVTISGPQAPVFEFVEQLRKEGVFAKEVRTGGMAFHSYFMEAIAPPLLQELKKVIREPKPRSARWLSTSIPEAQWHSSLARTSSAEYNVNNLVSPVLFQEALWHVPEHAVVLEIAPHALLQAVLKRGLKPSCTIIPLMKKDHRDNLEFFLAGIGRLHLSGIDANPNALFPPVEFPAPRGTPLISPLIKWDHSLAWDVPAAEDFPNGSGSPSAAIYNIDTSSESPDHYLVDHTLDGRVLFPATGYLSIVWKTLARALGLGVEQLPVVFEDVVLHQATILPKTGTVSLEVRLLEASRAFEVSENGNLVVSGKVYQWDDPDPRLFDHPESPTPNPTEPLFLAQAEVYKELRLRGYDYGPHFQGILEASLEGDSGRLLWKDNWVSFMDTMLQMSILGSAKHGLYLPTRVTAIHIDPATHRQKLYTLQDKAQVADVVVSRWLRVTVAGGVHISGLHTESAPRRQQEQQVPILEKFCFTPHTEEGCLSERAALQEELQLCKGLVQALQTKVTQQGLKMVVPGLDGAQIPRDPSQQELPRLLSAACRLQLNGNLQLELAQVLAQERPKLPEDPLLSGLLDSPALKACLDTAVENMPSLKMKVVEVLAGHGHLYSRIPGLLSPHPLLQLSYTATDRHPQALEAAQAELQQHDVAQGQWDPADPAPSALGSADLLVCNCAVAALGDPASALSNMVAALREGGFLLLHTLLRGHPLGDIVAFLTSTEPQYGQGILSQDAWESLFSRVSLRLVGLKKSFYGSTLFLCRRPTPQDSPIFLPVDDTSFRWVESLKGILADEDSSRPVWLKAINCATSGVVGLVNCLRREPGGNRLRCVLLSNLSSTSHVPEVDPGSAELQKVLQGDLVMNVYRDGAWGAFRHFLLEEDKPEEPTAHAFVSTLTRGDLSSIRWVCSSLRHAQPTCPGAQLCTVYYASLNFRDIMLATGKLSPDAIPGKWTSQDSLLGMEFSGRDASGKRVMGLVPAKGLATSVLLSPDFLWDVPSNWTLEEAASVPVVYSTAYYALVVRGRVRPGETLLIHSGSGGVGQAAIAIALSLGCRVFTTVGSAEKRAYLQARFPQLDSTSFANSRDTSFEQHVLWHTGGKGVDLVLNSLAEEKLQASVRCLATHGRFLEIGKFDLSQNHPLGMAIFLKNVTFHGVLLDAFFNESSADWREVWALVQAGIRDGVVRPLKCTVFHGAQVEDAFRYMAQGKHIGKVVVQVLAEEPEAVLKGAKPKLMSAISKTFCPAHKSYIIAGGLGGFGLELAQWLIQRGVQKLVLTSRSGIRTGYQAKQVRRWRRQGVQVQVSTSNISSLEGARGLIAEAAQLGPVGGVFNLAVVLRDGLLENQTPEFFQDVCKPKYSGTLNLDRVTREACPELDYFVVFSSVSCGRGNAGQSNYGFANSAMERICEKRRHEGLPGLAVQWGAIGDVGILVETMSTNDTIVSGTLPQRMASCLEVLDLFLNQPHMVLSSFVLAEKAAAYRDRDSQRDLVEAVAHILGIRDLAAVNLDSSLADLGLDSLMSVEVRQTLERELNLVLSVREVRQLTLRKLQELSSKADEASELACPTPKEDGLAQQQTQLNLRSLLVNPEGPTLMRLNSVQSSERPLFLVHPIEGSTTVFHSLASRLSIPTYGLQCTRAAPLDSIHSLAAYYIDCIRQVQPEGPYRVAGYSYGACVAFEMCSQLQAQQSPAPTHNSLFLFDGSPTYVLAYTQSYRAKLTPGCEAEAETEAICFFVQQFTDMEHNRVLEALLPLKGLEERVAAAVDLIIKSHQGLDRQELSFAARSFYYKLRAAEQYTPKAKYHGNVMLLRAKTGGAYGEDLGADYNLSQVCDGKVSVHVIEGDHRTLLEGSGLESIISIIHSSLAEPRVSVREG
# Target: Fatty acid synthase (human (endogenous in HepG2 and SMMC7721)) (UniProt P49327)
# Assay: affinity purification with mass spectrometry; FASN antibody and Protein A/G agarose beads on whole cell lysates of HepG2 cells transfected with control siRNA or FASN siRNA; eluted proteins iTRAQ-labelled (114, 117 against 118, 121), Nano LC ESI MS/MS
row,binding,Binder
1,binds,"Ankycorbin (protein, UniProt Q9P0K7 1-980) MKSLKAKFRKSDTNEWNKNDDRLLQAVENGDAEKVASLLGKKGASATKHDSEGKTAFHLAAAKGHVECLRVMITHGVDVTAQDTTGHSALHLAAKNSHHECIRKLLQSKCPAESVDSSGKTALHYAAAQGCLQAVQILCEHKSPINLKDLDGNIPLLLAVQNGHSEICHFLLDHGADVNSRNKSGRTALMLACEIGSSNAVEALIKKGADLNLVDSLGYNALHYSKLSENAGIQSLLLSKISQDADLKTPTKPKQHDQVSKISSERSGTPKKRKAPPPPISPTQLSDVSSPRSITSTPLSGKESVFFAEPPFKAEISSIRENKDRLSDSTTGADSLLDISSEADQQDLLSLLQAKVASLTLHNKELQDKLQAKSPKEAEADLSFDSYHSTQTDLGPSLGKPGETSPPDSKSSPSVLIHSLGKSTTDNDVRIQQLQEILQDLQKRLESSEAERKQLQVELQSRRAELVCLNNTEISENSSDLSQKLKETQSKYEEAMKEVLSVQKQMKLGLVSPESMDNYSHFHELRVTEEEINVLKQDLQNALEESERNKEKVRELEEKLVEREKGTVIKPPVEEYEEMKSSYCSVIENMNKEKAFLFEKYQEAQEEIMKLKDTLKSQMTQEASDEAEDMKEAMNRMIDELNKQVSELSQLYKEAQAELEDYRKRKSLEDVTAEYIHKAEHEKLMQLTNVSRAKAEDALSEMKSQYSKVLNELTQLKQLVDAQKENSVSITEHLQVITTLRTAAKEMEEKISNLKEHLASKEVEVAKLEKQLLEEKAAMTDAMVPRSSYEKLQSSLESEVSVLASKLKESVKEKEKVHSEVVQIRSEVSQVKREKENIQTLLKSKEQEVNELLQKFQQAQEELAEMKRYAESSSKLEEDKDKKINEMSKEVTKLKEALNSLSQLSYSTSSSKRQSQQLEALQQQVKQLQNQLAECKKQHQEVISVYRMHLLYAVQGQMDEDVQKVLKQILTMCKNQSQKK"
2,binds,"Signal-induced proliferation-associated protein 1 (protein, UniProt Q96FS4 1-1042) MPMWAGGVGSPRRGMAPASTDDLFARKLRQPARPPLTPHTFEPRPVRGPLLRSGSDAGEARPPTPASPRARAHSHEEASRPAATSTRLFTDPLALLGLPAEEPEPAFPPVLEPRWFAHYDVQSLLFDWAPRSQGMGSHSEASSGTLASAEDQAASSDLLHGAPGFVCELGGEGELGLGGPASPPVPPALPNAAVSILEEPQNRTSAYSLEHADLGAGYYRKYFYGKEHQNFFGMDESLGPVAVSLRREEKEGSGGGTLHSYRVIVRTTQLRTLRGTISEDALPPGPPRGLSPRKLLEHVAPQLSPSCLRLGSASPKVPRTLLTLDEQVLSFQRKVGILYCRAGQGSEEEMYNNQEAGPAFMQFLTLLGDVVRLKGFESYRAQLDTKTDSTGTHSLYTTYQDHEIMFHVSTMLPYTPNNQQQLLRKRHIGNDIVTIVFQEPGSKPFCPTTIRSHFQHVFLVVRAHTPCTPHTTYRVAVSRTQDTPAFGPALPAGGGPFAANADFRAFLLAKALNGEQAAGHARQFHAMATRTRQQYLQDLATNEVTTTSLDSASRFGLPSLGGRRRAAPRGPGAELQAAGSLVWGVRAAPGARVAAGAQASGPEGIEVPCLLGISAEALVLVAPRDGRVVFNCACRDVLAWTFSEQQLDLYHGRGEAITLRFDGSPGQAVGEVVARLQLVSRGCETRELALPRDGQGRLGFEVDAEGFVTHVERFTFAETAGLRPGARLLRVCGQTLPSLRPEAAAQLLRSAPKVCVTVLPPDESGRPRRSFSELYTLSLQEPSRRGAPDPVQDEVQGVTLLPTTKQLLHLCLQDGGSPPGPGDLAEERTEFLHSQNSLSPRSSLSDEAPVLPNTTPDLLLATTAKPSVPSADSETPLTQDRPGSPSGSEDKGNPAPELRASFLPRTLSLRNSISRIMSEAGSGTLEDEWQAISEIASTCNTILESLSREGQPIPESGDPKGTPKSDAEPEPGNLSEKVSHLESMLRKLQEDLQKEKADRAALEEEVRSLRHNNRRLQAESESAATRLLLASKQLGSPTADLA"
3,binds,"FLOT1 protein (protein, UniProt O75955 1-427) MFFTCGPNEAMVVSGFCRSPPVMVAGGRVFVLPCIQQIQRISLNTLTLNVKSEKVYTRHGVPISVTGIAQVKIQGQNKEMLAAACQMFLGKTEAEIAHIALETLEGHQRAIMAHMTVEEIYKDRQKFSEQVFKVASSDLVNMGISVVSYTLKDIHDDQDYLHSLGKARTAQVQKDARIGEAEAKRDAGIREAKAKQEKVSAQYLSEIEMAKAQRDYELKKAAYDIEVNTRRAQADLAYQLQVAKTKQQIEEQRVQVQVVERAQQVAVQEQEIARREKELEARVRKPAEAERYKLERLAEAEKSQLIMQAEAEAASVRMRGEAEAFAIGARARAEAEQMAKKAEAFQLYQEAAQLDMLLEKLPQVAEEISGPLTSANKITLVSSGSGTMGAAKVTGEVLDILTRLPESVERLTGVSISQVNHKPLRTA"
4,binds,"Leucine-rich repeat flightless-interacting protein 2 (protein, UniProt Q9Y608 1-721) MGTPASGRKRTPVKDRFSAEDEALSNIAREAEARLAAKRAARAEARDIRMRELERQQKEYSLHSFDRKWGQIQKWLEDSERARYSHRSSHHRPYLGVEDALSIRSVGSHRYDMFKDRSSRLSSLNHSYSHSHGMKKRSSDSHKDLLSGLYFDQRNYSSLRHSKPTSAYYTRQSSSLYSDPLATYKSDRASPTANSGLLRSASLASLYNGGLYNPYGPRTPSECSYYSSRISSARSSPGFTNDDTASIVSSDRASRGRRESVVSAADYFSRSNRRGSVVSEVDDISIPDLSSLDEKSDKQYAENYTRPSSRNSASATTPLSGNSSRRGSGDTSSLIDPDTSLSELRDIYDLKDQIQDVEGRYMQGLKELKESLSEVEEKYKKAMVSNAQLDNEKNNLIYQVDTLKDVIEEQEEQMAEFYRENEEKSKELERQKHMCSVLQHKMEELKEGLRQRDELIEEKQRMQQKIDTMTKEVFDLQETLLWKDKKIGALEKQKEYIACLRNERDMLREELADLQETVKTGEKHGLVIIPDGTPNGDVSHEPVAGAITVVSQEAAQVLESAGEGPLDVRLRKLAGEKEELLSQIRKLKLQLEEERQKCSRNDGTVGDLAGLQNGSDLQFIEMQRDANRQISEYKFKLSKAEQDITTLEQSISRLEGQVLRYKTAAENAEKVEDELKAEKRKLQRELRTALDKIEEMEMTNSHLAKRLEKMKANRTALLAQQ"
5,binds,"EF-hand domain-containing protein D2 (protein, UniProt Q96C19 1-240) MATDELATKLSRRLQMEGEGGGETPEQPGLNGAAAAAAGAPDEAAEALGSADCELSAKLLRRADLNQGIGEPQSPSRRVFNPYTEFKEFSRKQIKDMEKMFKQYDAGRDGFIDLMELKLMMEKLGAPQTHLGLKNMIKEVDEDFDSKLSFREFLLIFRKAAAGELQEDSGLCVLARLSEIDVSSEGVKGAKSFFEAKVQAINVSSRFEEEIKAEQEERKKQAEEMKQRKAAFKELQSTFK"
6,binds,"Treacle protein (protein, UniProt Q13428 1-1488) MAEARKRRELLPLIYHHLLRAGYVRAAREVKEQSGQKCFLAQPVTLLDIYTHWQQTSELGRKRKAEEDAALQAKKTRVSDPISTSESSEEEEEAEAETAKATPRLASTNSSVLGADLPSSMKEKAKAETEKAGKTGNSMPHPATGKTVANLLSGKSPRKSAEPSANTTLVSETEEEGSVPAFGAAAKPGMVSAGQADSSSEDTSSSSDETDVEGKPSVKPAQVKASSVSTKESPARKAAPAPGKVGDVTPQVKGGALPPAKRAKKPEEESESSEEGSESEEEAPAGTRSQVKASEKILQVRAASAPAKGTPGKGATPAPPGKAGAVASQTKAGKPEEDSESSSEESSDSEEETPAAKALLQAKASGKTSQVGAASAPAKESPRKGAAPAPPGKTGPAVAKAQAGKREEDSQSSSEESDSEEEAPAQAKPSGKAPQVRAASAPAKESPRKGAAPAPPRKTGPAAAQVQVGKQEEDSRSSSEESDSDREALAAMNAAQVKPLGKSPQVKPASTMGMGPLGKGAGPVPPGKVGPATPSAQVGKWEEDSESSSEESSDSSDGEVPTAVAPAQEKSLGNILQAKPTSSPAKGPPQKAGPVAVQVKAEKPMDNSESSEESSDSADSEEAPAAMTAAQAKPALKIPQTKACPKKTNTTASAKVAPVRVGTQAPRKAGTATSPAGSSPAVAGGTQRPAEDSSSSEESDSEEEKTGLAVTVGQAKSVGKGLQVKAASVPVKGSLGQGTAPVLPGKTGPTVTQVKAEKQEDSESSEEESDSEEAAASPAQVKTSVKKTQAKANPAAARAPSAKGTISAPGKVVTAAAQAKQRSPSKVKPPVRNPQNSTVLARGPASVPSVGKAVATAAQAQTGPEEDSGSSEEESDSEEEAETLAQVKPSGKTHQIRAALAPAKESPRKGAAPTPPGKTGPSAAQAGKQDDSGSSSEESDSDGEAPAAVTSAQVIKPPLIFVDPNRSPAGPAATPAQAQAASTPRKARASESTARSSSSESEDEDVIPATQCLTPGIRTNVVTMPTAHPRIAPKASMAGASSSKESSRISDGKKQEGPATQVSKKNPASLPLTQAALKVLAQKASEAQPPVARTQPSSGVDSAVGTLPATSPQSTSVQAKGTNKLRKPKLPEVQQATKAPESSDDSEDSSDSSSGSEEDGEGPQGAKSAHTLGPTPSRTETLVEETAAESSEDDVVAPSQSLLSGYMTPGLTPANSQASKATPKLDSSPSVSSTLAAKDDPDGKQEAKPQQAAGMLSPKTGGKEAASGTTPQKSRKPKKGAGNPQASTLALQSNITQCLLGQPWPLNEAQVQASVVKVLTELLEQERKKVVDTTKESSRKGWESRKRKLSGDQPAARTPRSKKKKKLGAGEGGEASVSPEKTSTTSKGKAKRDKASGDVKEKKGKGSLGSQGAKDEPEEELQKGMGTVEGGDQSNPKSKKEKKKSDKRKKDKEKKEKKKKAKKASTKDSESPSQKKKKKKKKTAEQTV"
7,binds,"Phostensin (protein, UniProt Q6NYC8 1-613) MATIPDWKLQLLARRRQEEASVRGREKAERERLSQMPAWKRGLLERRRAKLGLSPGEPSPVLGTVEAGPPDPDESAVLLEAIGPVHQNRFIRQERQQQQQQQQRSEELLAERKPGPLEARERRPSPGEMRDQSPKGRESREERLSPRETRERRLGIGGAQELSLRPLEARDWRQSPGEVGDRSSRLSEAWKWRLSPGETPERSLRLAESREQSPRRKEVESRLSPGESAYQKLGLTEAHKWRPDSRESQEQSLVQLEATEWRLRSGEERQDYSEECGRKEEWPVPGVAPKETAELSETLTREAQGNSSAGVEAAEQRPVEDGERGMKPTEGWKWTLNSGKAREWTPRDIEAQTQKPEPPESAEKLLESPGVEAGEGEAEKEEAGAQGRPLRALQNCCSVPSPLPPEDAGTGGLRQQEEEAVELQPPPPAPLSPPPPAPTAPQPPGDPLMSRLFYGVKAGPGVGAPRRSGHTFTVNPRRSVPPATPATPTSPATVDAAVPGAGKKRYPTAEEILVLGGYLRLSRSCLAKGSPERHHKQLKISFSETALETTYQYPSESSVLEELGPEPEVPSAPNPPAAQPDDEEDEEELLLLQPELQGGLRTKALIVDESCRR"

# These are yes or no findings as the source states them, for the method shown. In cells and extracts the contact can be indirect. Here binding means that the protein was enriched with, or labelled near, the bait; the list need not be complete.
